# According to patent US5434066:
# Where a protein sequence is shown, tags need not be part of it. For some assays here: Construct, isoform or probe ends are uncertain for at least one entry.
# Tests used:
# [1] = target: T1, Cre recombinase (Bacteriophage P1) (UniProt P06956); test: enzyme reaction in vitro; settings: in vitro Cre excision of the kanR gene between directly repeated lox sites, giving pZL; protein in an extract
# T1 sequence (looked up, limits assumed): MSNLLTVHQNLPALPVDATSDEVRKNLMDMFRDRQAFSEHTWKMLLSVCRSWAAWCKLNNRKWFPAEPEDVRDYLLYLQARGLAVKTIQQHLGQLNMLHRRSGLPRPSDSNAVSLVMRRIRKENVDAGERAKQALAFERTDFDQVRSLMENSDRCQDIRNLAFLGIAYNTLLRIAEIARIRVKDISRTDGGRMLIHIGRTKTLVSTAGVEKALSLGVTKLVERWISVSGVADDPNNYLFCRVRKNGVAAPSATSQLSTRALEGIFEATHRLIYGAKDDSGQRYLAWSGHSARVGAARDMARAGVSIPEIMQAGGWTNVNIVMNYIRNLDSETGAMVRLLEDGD
# [2] = target: T1, Cre recombinase (Bacteriophage P1); test: activity in cells; settings: pSPORTLoxP yield estimated 5-10 fold lower than pSPORT in Cre-expressing cells; presumed Cre binding to loxP blocks replication; protein in cells; protein details: expressed from pZIP plasmid in E. coli DH10BZIP; only the site is given
sequence,measurement,setting,value
ATAACTTCGTATAATGTATGCTATACGAAGTTAT (double strand) [loxP site],activity on this sequence,[1],active
same,activity on this sequence,[2],active
